Experimental data reported in PubChem BioAssay AID504834 (National Center for Advancing Translational Sciences (NCATS), 2011).
The campaign covered roughly 320,000 compounds. About 22,000 (6.9%) were called active. Inconclusive results, whose numbers are uncertain, are shown with a selection of clear calls. The call rests on the fitted dose curve; in most records, active means well fitted inhibition curve with a large enough effect; inconclusive means small, poorly fitted or top-dose-only effect, or another doubt; inactive means no such curve, though single readings can be large or run the other way. Potencies beside an inconclusive call are fits to weak or partial responses and may not hold up.

Assay: Primary qHTS for delayed death inhibitors of the malarial parasite plastid, 96 hour incubation
Details: P. falciparum luciferase reporter growth; series mostly up to 28.7 µM; activity change, negative = inhibition: at the top concentration
Method in brief: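 P. falciparum expressing integrated firefly luciferase grown in erythrocytes (2% hematocrit, 0.05% parasitemia final) with compounds for 96 hours at 37 C, 5% CO2. Growth inhibition read as loss of luminescence after adding luciferase detection reagent.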
On the % scale 0 is the no-effect control and ±100 the full control effect; potency means the concentration at half of the fitted maximal effect.

**Q.** Which Potency does the source give for `Clc1cccc(-c2nn3c(-c4cccc(Cl)c4)nnc3s2)c1` here?
**A.** inconclusive: 11.7 µM [inhibitor, single point]

**Q.** Which Potency does the source give for `CCC(C(=O)OCC(=O)N(CC)c1c(N)n(Cc2ccccc2)c(=O)[nH]c1=O)c1ccccc1` (stereo unspecified) here?
**A.** inconclusive: 13.1 µM [inhibitor, partial curve, poor fit]

**Q.** Which Potency does the source give for `Fc1ccc(NC(=S)N2CCc3ccccc3C2)c(F)c1` here?
**A.** inconclusive: 4.65 µM [inhibitor, partial curve]

**Q.** Which “activity change, negative = inhibition” value does the source give for `Oc1ccccc1-c1cc(-c2ccccc2)no1` here?
**A.** inactive: 117%

**Q.** Which Potency does the source give for `Brc1cc2c(cc1/C=N/Nc1nc(N3CCCCC3)nc(N3CCCCC3)n1)OCO2` here?
**A.** inconclusive: 18.5 µM [inhibitor, single point]

**Q.** Which Potency does the source give for `O=Nc1c(O)n(Cc2c(Cl)cccc2Cl)c2ccccc12` here?
**A.** inconclusive: 7.38 µM [inhibitor, partial curve, poor fit]

**Q.** With `O=C(CN1CCCCC1)NCC(=O)Nc1ccc(Br)cc1C(=O)c1ccccc1` as the molecule, how does the “activity change, negative = inhibition” value read?
**A.** inactive: 122%

**Q.** For `O=c1cc(-c2ccco2)oc2ccc(Cl)cc12`, which “activity change, negative = inhibition” value is on record?
**A.** inactive: -4.02%

**Q.** With `O=C(CN1C(=O)COc2ccc(S(=O)(=O)N3CCCC3)cc21)NC1CCCCCCC1` as the molecule, how does the Potency read?
**A.** inconclusive: 18.5 µM [inhibitor, single point]

**Q.** For `C=C(C)Cn1c(N2CCN(CC)CC2)nc2c1c(=O)[nH]c(=O)n2C`, which Potency is on record?
**A.** active: 2.33 µM

**Q.** Which Potency does the source give for `CCOc1ccccc1NC(=O)C1=C(C)NC(=O)NC1c1cccs1` (stereo unspecified) here?
**A.** inconclusive: 10.4 µM [inhibitor, single point]

**Q.** Which “activity change, negative = inhibition” value does the source give for `O=C(COC(=O)c1ccc(S(=O)(=O)N2CCCCC2)cc1)Nc1ccccc1Cl` here?
**A.** inactive: 36%

**Q.** Which Potency does the source give for `C/C(Cn1cnc([N+](=O)[O-])n1)=N\NC(=O)c1ccc(F)cc1` here?
**A.** inconclusive: 18.5 µM [inhibitor, single point]

**Q.** For `CCOc1cc(C2C(C(=O)OCC(C)C)=C(C)N=C3SCCC(=O)N32)ccc1OC(C)=O` (stereo unspecified), which Potency is on record?
**A.** inconclusive: 5.86 µM [inhibitor, partial curve]

**Q.** With `CC(C)Oc1cccc(C(=O)N2CCCC2)c1` as the molecule, how does the “activity change, negative = inhibition” value read?
**A.** inactive: 6.22%

**Q.** With `O=C(NC1CCCC1)C(c1ccncc1)N(C(=O)Cc1cccs1)c1ccccc1` (stereo unspecified) as the molecule, how does the “activity change, negative = inhibition” value read?
**A.** inactive: 34%

**Q.** Which “activity change, negative = inhibition” value does the source give for `COC(=O)c1ccc(NC(=O)CN2CCN(CC#N)CC2)cc1` here?
**A.** inactive: -28.3%

**Q.** Which Potency does the source give for `Cc1ccc(C)n1NC(=O)c1ccc(Cl)cc1Cl` here?
**A.** inconclusive: 3.7 µM [inhibitor, partial curve]

**Q.** With `O=S(=O)(/C=C/c1ccccc1)N1CCN(c2nc(-c3ccccc3)nc3ccccc23)CC1` as the molecule, how does the Potency read?
**A.** active: 11.7 µM

**Q.** Which Potency does the source give for `CN(C)CCCNC(=O)c1cc2sc3ccccc3c2s1` here?
**A.** inconclusive: 18.5 µM [inhibitor, single point]

**Q.** For `Cc1cccc(C)c1NC(=O)CN(C)C(=O)C1CC1C` (stereo unspecified), which “activity change, negative = inhibition” value is on record?
**A.** inactive: -12.7%
